Reference: PMC8225790
Results are given in words; binding and its absence hold for the method and conditions named. Binding calls can cover weak binding; strength is not graded here. Each block holds one molecule with its values, some of them ahead of it.

Sequences of proteins named here, by UniProt entry; tags and fusion partners are left off.
UniProt P56773: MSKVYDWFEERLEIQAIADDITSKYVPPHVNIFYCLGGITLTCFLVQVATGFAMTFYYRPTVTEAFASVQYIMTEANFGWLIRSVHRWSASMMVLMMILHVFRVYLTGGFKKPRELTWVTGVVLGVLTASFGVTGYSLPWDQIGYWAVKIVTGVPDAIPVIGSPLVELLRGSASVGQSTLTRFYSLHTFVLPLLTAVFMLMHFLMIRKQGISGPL

Target: PGRL2 (mature protein without its transit peptide, PGRL2_(41-299)) (Arabidopsis thaliana) (UniProt F4KJ55)
Test: two-hybrid; split-ubiquitin assay (Dual Membrane kit, Dualsystems Biotech) in DSY-1 yeast; PGRL2-Cub as bait, NubG fusions as prey; colonies plated on permissive (-LT) and then selective (-LTH) medium

Molecule: Cytb6 (from UniProt P56773 1-215)
binding: no binding

B2: FNR1 (protein, UniProt Q9FKW6 50-360)
chain: VTTDTTEAPPVKVVKESKKQEEGIVVNKFKPKNPYTGRCLLNTKITGDDAPGETWHIVFTTEGEVPYREGQSIGVIPEGIDKNGKPHKLRLYSIASSAIGDFGDSKTVSLCVKRLVYTNDGGEIVKGVCSNFLCDLKPGDEAKITGPVGKEMLMPKDPNATIIMLGTGTGIAPFRSFLWKMFFEEHEDYKFNGLAWLFLGVPTSSSLLYKEEFEKMKEKNPDNFRLDFAVSREQTNEKGEKMYIQTRMAEYAEELWELLKKDNTFVYMCGLKGMEKGIDDIMVSLAAKDGIDWLEYKKQLKRSEQWNVEVY
binding: no binding

B4: FNR2 (protein, UniProt Q8W493 58-369)
chain: ITTETDTPTPAKKVEKVSKKNEEGVIVNRYRPKEPYTGKCLLNTKITADDAPGETWHMVFSHQGEIPYREGQSVGVIADGIDKNGKPHKVRLYSIASSALGDLGNSETVSLCVKRLVYTNDQGETVKGVCSNFLCDLAPGSDVKLTGPVGKEMLMPKDPNATVIMLATGTGIAPFRSFLWKMFFEKHDDYKFNGLAWLFLGVPTTSSLLYQEEFDKMKAKAPENFRVDYAISREQANDKGEKMYIQTRMAQYAAELWELLKKDNTFVYMCGLKGMEKGIDDIMVSLAANDGIDWFDYKKQLKKAEQWNVEVY
binding: no binding

The next lines start with the values.

binding: binds
B1: PGR5 (protein, UniProt Q9SL05 61-133)
chain: KNVNEGKGLFAPLVVVTRNLVGKKRFNQLRGKAIALHSQVITEFCKSIGADAKQRQGLIRLAKKNGERLGFLA

binding: binds
B3: PGRL1A (without the transit peptide, PGRL1A_(61-324)) (domain or fragment, UniProt Q8H112 61-324)
chain: ATTEQSGPVGGDNVDSNVLPYCSINKAEKKTIGEMEQEFLQALQSFYYDGKAIMSNEEFDNLKEELMWEGSSVVMLSSDEQRFLEASMAYVSGNPILNDEEYDKLKLKLKIDGSDIVSEGPRCSLRSKKVYSDLAVDYFKMLLLNVPATVVALGLFFFLDDITGFEITYIMELPEPYSFIFTWFAAVPVIVYLALSITKLIIKDFLILKGPCPNCGTENTSFFGTILSISSGGKTNTVKCTNCGTAMVYDSGSRLITLPEGSQA
